# Source: patent US20050112706A1, “Diagnostic and prognostic methods for prostate cancers” (priority 2002, published 2005)
# “Also recorded” adds a separate entry of the source. At least one structure is not confirmed: it was looked up by name or label, or the drawing left a doubt.
# Test system: HPE cells
# Experiment: 2D difference gel electrophoresis (DIGE) of hormone-treated HPE cells
# Type: cell-based, human
# Text: FIGS. 9A-B. Identification of androgen- and flutamide-regulated proteins by 2D difference gel electrophoresis. […] Whole cell proteins were extracted, labeled with the dyes Cy2 (ex 480, em 530), Cy3 (ex 540, em 590), and Cy5 (ex 620, em 680) respectively. The labeled proteins were mixed together and subjected to a pH gradient of pH 4 to pH 7 in the first dimension and separated by PAGE in the second dimension. […] The proteins were excised, subjected to in-gel tryptic digestion and analyzed by MS. The tryptic peptides were identified by searching the protein data bases such as the NCBInr and SWISS- PROT databases. EST databases were also searched with fragmentation data from tandem mass spectrometry when necessary.
# Identification of antiandrogen-regulated genes. […] In this study, 8 proteins were identified by tryptic mapping and the sequences verified by partial amino acid sequencing of individual tryptic peptides (FIG. 9B). […] Of particular interest were calreticulin, DJ-1 and non-selenium glutathione peroxidase. Calreticulin binds to the AR DNA binding domain to block AR-activated transcription. Therefore, down-regulation of calreticulin expression would typically facilitate AR binding to the AR binding site to transactivate gene expression (Dedhar et al., 1994). Calreticulin also interacts with integrins during cell attachment and spreading (Coppolino and Dedhar, 1999) and a loss or decrease in calreticulin could potentially increase cell motility and increase HPE cell metastatic potential. The RNA binding protein regulatory subunit DJ-1 has oncogenic potential, transforming NIH3T3 cells in cooperation with ras (Nagakubo et al., 1997). DJ-1 also positively regulates AR-activated transcription by binding PIASx alpha and making it unavailable for the AR:PIASx alpha complex which functions to inhibit AR activation (Takahasi et al., 2001). Non-selenium glutathione peroxidase gene was initially identified as a KGF-regulated gene (Munz et al., 1997) and it is highly expressed in the hyperproliferative epithelium at the wound edge.
# [1] = 10^−5 M flutamide vs (−) hormone
# [2] = 10^−8 M DHT or 10^−5 M flutamide vs (−) hormone
smiles,measurement,setting,value
CC(C)C(=O)Nc1ccc([N+](=O)[O-])c(C(F)(F)F)c1 [flutamide],expression of RNA binding protein regulatory subunit (DJ-1),[1],up-regulated; also recorded: increased
same,expression of non-selenium glutathione peroxidase (NSGP),[1],up-regulated
same,expression of thioredoxin-dependent peroxide reductase,[1],up-regulated
same,Calreticulin expression,[2],decreased; also recorded: down-regulated
same,expression of actin,[2],down-regulated
same,expression of annexin V,[2],down-regulated
same,expression of glutathione S-transferase,[2],down-regulated
same,expression of vimentin,[2],down-regulated
